Data as given in PubChem BioAssay (NCATS).
This is one part of the list. These are further read-outs of the screen, such as a control signal, another cell line or another target. No call is given for them. The list favours compounds with an active or inconclusive main result. Words in brackets tell the shape of the fitted curve; partial curves, single points and poor fits give uncertain potencies.

Test: qHTS Assay for Modulators of Human Peripheral Myelin Protein 22 (PMP22) Expression/Activity (AID 1967)
Conditions: Cell-based PMP22 reporter, dual-color luciferase ratio; measured here: green reporter channel AC50; mouse Pmp22 promoter in mouse Schwann cells
From the text: Charcot-Marie-Tooth-Association [CMTA]
NIH Chemical Genomics Center [NCGC]
Charcot-Marie-Tooth (CMT) disease was first characterized by Jean-Martin Charcot and Pierre Marie in France and, independently, by Howard Henry Tooth in England in 1886. CMT is one of the most common inherited neurological diseases, affecting about 125,000 Americans. […] The most common cause of CMT is known as CMT1A, and is caused by a duplication of the PMP22 gene, leading to over-expression of this protein. PMP22 is a glycosylated intrinsic membrane protein accounting for 2-5% of the myelin protein content and over-expression leads to demyelination and subsequently axonal loss.
A cell-based assay for PMP22 expression modulation was developed by Drs. Ned Mantei and Ueli Suter on behalf of the CMTA. This assay employs a mouse Schwann cell line, MSC80 (Boutry et al., 1992), that was engineered to have the mouse Pmp22 promoter driving expression of a green light-emitting click beetle luciferase (CBG68; Chroma-Gl developed by Promega Corp). A red light-emitting click beetle luciferase (CBR; developed by Promega Corp: CBG68 and CBR differ by only a few amino acids within the D-luciferin binding pocket) under control of the EF-alpha promoter is also stably expressed in the same cells for use as an internal control for nonspecific promoter- or reporter-based effects.
NCGC Assay Protocol Summary:
Cells were seeded in white solid 1536-well plates at between 500-750 cells/4uL in DMEM medium containing 10% FBS, w/o phenol red. After overnight incubation at 37 degree Celsius/5% C02, 23 nL of compounds or DMSO were delivered to each well using a pin tool, followed by 24h-incubation at 37 degree Celsius/5% C02. Then 4 uL Chroma-Glo luminescent substrate mix (Promega) was added to each well. Luminescence was measured on a ViewLux plate reader (Perkin Elmer) using a 540/25 nm filter for green luminescence and a 618/8 nm filter for red luminescence. The green and red luminescent signals were corrected for red and green luminescence filter overlap using filter calibration constants (determined using control cell lines expressing either the green or red CBLuc reporters using the procedures given in Davis et al., 2007). The %Activity was determined from the ratio of corrected green/red luminescent values. Green luminescent and ratio %Activity was determined by normalizing to the signal between of untreated cells (0% Activity)
Keywords: luminescence, PMP22, CMT1A, NCGC, CMTA, qHTS
Concentration-response curves were fitted to the signals arising from the green luminescence (PMP22 promoter driven expression) and the red luminescence (control promoter) as well as the calculated ratio. The concentration-effect curves were then classified based on curve quality (r2), response magnitude and degree of measured activity.
For CC(C)(CO)Cc1cc(C(C)(C)C)c(O)c(C(C)(C)C)c1, the AC50 was 95.3 µM [falling, single point].
In the case of CC(C)OC(=O)C(C)(C)Oc1ccc(C(=O)c2ccc(Cl)cc2)cc1, the AC50 is reported as 95.3 µM [falling, single point].
For CN1CCC(=C2c3ccccc3C=Cc3ccccc32)CC1, the AC50 was 60.1 µM [falling, partial curve].
With CC(C)Cc1ccc([C@H](C)C(=O)O)cc1 the AC50 was 60.1 µM [rising, partial curve, poor fit].
With CC(C)NCC(O)COc1cccc2ccccc12 (stereo not given) the AC50 was 75.7 µM [falling, partial curve].
With COC(=O)[C@H]1[C@H]2C[C@@H]3c4[nH]c5cc(OC)ccc5c4CCN3C[C@H]2C[C@@H](OC(=O)c2cc(OC)c(OC)c(OC)c2)[C@@H]1OC the AC50 was 42.6 µM [falling, full curve, poor fit].
In the case of Cc1cccc(C(=O)NCN2CCN(c3ccccc3C#N)CC2)c1, the AC50 is reported as 95.3 µM [falling, single point].
For CN1CCN2c3ccccc3Cc3ccccc3C2C1 (stereo not given), the AC50 was 75.7 µM [falling, partial curve, poor fit].
In the case of Cn1c(=O)c2c(nc(/C=C/c3cccc(Cl)c3)n2C)n(C)c1=O, the AC50 is reported as 84.9 µM [falling, single point].
For Oc1ccc(O)cc1, the AC50 was 13.5 µM [falling, full curve].
With O=C1NC(=O)c2cc(Nc3ccccc3)c(Nc3ccccc3)cc21 the AC50 was 47.8 µM [falling, partial curve].
In the case of Ic1ccc(N2CCN(Cc3c[nH]c4ncccc34)CC2)cc1, the AC50 is reported as 75.7 µM [falling, partial curve, poor fit].
For COC(=O)C(N)Cc1ccc(Cl)cc1 (stereo not given), the AC50 was 84.9 µM [falling, single point].
In the case of CCCCCCN(CCCCCC)C(=O)Cc1c(-c2ccc(F)cc2)[nH]c2ccccc12, the AC50 is reported as 33.8 µM [falling, full curve].
With O=c1ccc2c(OCCCCc3ccccc3)c3ccoc3cc2o1 the AC50 was 47.8 µM [falling, partial curve].
In the case of CCC1(O)CC2CN(CCc3c([nH]c4ccccc34)[C@@](C(=O)OC)(c3cc4c(cc3OC)N(C)C3[C@]45CCN4CC=C[C@@](CC)([C@@H](OC(C)=O)[C@]3(O)C(=O)OC)[C@H]45)C2)C1 (stereo not given in full), the AC50 is reported as 60.1 µM [falling, partial curve, poor fit].
For OCCN1CCN(CC/C=C2/c3ccccc3Sc3ccc(C(F)(F)F)cc32)CC1, the AC50 was 23.9 µM [falling, full curve].

Same assay, conditions: Cell-based PMP22 reporter, dual-color luciferase ratio; measured here: red reporter channel AC50; EF-alpha promoter control reporter in MSC80 mouse Schwann cells
In the case of CC(C)(CO)Cc1cc(C(C)(C)C)c(O)c(C(C)(C)C)c1, the AC50 is reported as 95.3 µM [falling, single point].
In the case of CN(C(=O)CCCOc1ccc2[nH]c(=O)ccc2c1)C1CCCCC1, the AC50 is reported as 75.7 µM [falling, partial curve].
In the case of O=C(NCC1CCCCN1)c1cc(OCC(F)(F)F)ccc1OCC(F)(F)F (stereo not given), the AC50 is reported as 95.3 µM [falling, single point].
With CC(C)OC(=O)C(C)(C)Oc1ccc(C(=O)c2ccc(Cl)cc2)cc1 the AC50 was 95.3 µM [falling, single point].
In the case of CN1CCC(=C2c3ccccc3C=Cc3ccccc32)CC1, the AC50 is reported as 75.7 µM [falling, partial curve, poor fit].
For O=C(O)/C=C/c1ccc(O)c(O)c1, the AC50 was 84.9 µM [falling, single point].
With CC(C)NCC(O)COc1cccc2ccccc12 (stereo not given) the AC50 was 84.9 µM [falling, single point].
In the case of COC(=O)[C@H]1[C@H]2C[C@@H]3c4[nH]c5cc(OC)ccc5c4CCN3C[C@H]2C[C@@H](OC(=O)c2cc(OC)c(OC)c(OC)c2)[C@@H]1OC, the AC50 is reported as 47.8 µM [falling, partial curve].
For Cc1cccc(C(=O)NCN2CCN(c3ccccc3C#N)CC2)c1, the AC50 was 95.3 µM [falling, single point].
With CCCOc1ccccc1-c1nc2n[nH]nc2c(=O)[nH]1 the AC50 was 53.6 µM [falling, partial curve].
In the case of CCn1nc(C(=O)O)c(=O)c2cc3c(cc21)OCO3, the AC50 is reported as 84.9 µM [falling, single point].
With CN1CCN2c3ccccc3Cc3ccccc3C2C1 (stereo not given) the AC50 was 84.9 µM [falling, single point].
With Cn1c(=O)c2c(nc(/C=C/c3cccc(Cl)c3)n2C)n(C)c1=O the AC50 was 95.3 µM [falling, single point].
For NCCCS(=O)(=O)O, the AC50 was 53.6 µM [falling, partial curve].
In the case of Oc1ccc(O)cc1, the AC50 is reported as 21.3 µM [falling, full curve].
In the case of O=C1NC(=O)c2cc(Nc3ccccc3)c(Nc3ccccc3)cc21, the AC50 is reported as 37.9 µM [falling, partial curve].
In the case of NC12CC3CC(CC(C3)C1)C2, the AC50 is reported as 37.9 µM [rising, single point].
In the case of O=C(O)c1ccccc1Nc1cccc(OCc2ccc3ccccc3n2)c1, the AC50 is reported as 1.35 µM [rising, full curve, poor fit].
In the case of COC(=O)C(N)Cc1ccc(Cl)cc1 (stereo not given), the AC50 is reported as 84.9 µM [falling, single point].
In the case of CCCCCCN(CCCCCC)C(=O)Cc1c(-c2ccc(F)cc2)[nH]c2ccccc12, the AC50 is reported as 26.9 µM [falling, full curve].
In the case of COc1ccc(CN(CCN(C)C)c2ccccn2)cc1, the AC50 is reported as 95.3 µM [falling, single point].
In the case of CCC1(O)CC2CN(CCc3c([nH]c4ccccc34)[C@@](C(=O)OC)(c3cc4c(cc3OC)N(C)C3[C@]45CCN4CC=C[C@@](CC)([C@@H](OC(C)=O)[C@]3(O)C(=O)OC)[C@H]45)C2)C1 (stereo not given in full), the AC50 is reported as 10.7 µM [falling, partial curve, poor fit].
With OCCN1CCN(CC/C=C2/c3ccccc3Sc3ccc(C(F)(F)F)cc32)CC1 the AC50 was 19 µM [falling, full curve].
